In patent US7645738B2 (Bayer Animal Health GmbH, priority 2003, dated 2010):

Assay: general procedure: solution-phase peptide synthesis; BOP-Cl / DIEA
Conditions: for step yield: late stage modification step

Substance | step yield | cyclisation yield (cyclisation step, on linear precursor)
Cyclo(-N-methyl-L-alanyl-D-lactyl-N-methyl-L-isoleucyl-D-4-(2-hydroxyethyl-sulphonyl-ethylamino-phenyl)lactyl-N-methyl-L-isoleucyl-D-lactyl-) | 24.8% of theory | 
Cyclo(-N-methyl-L-alanyl-D-lactyl-N-methyl-L-isoleucyl-D-phenyllactyl-N-methyl-L-isoleucyl-D-lactyl-) |  | 64.7% of theory
Cyclo(-N-methyl-L-alanyl-D-lactyl-N-methyl-L-isoleucyl-D-4-morpholino-phenyllactyl-N-methyl-L-isoleucyl-D-lactyl-) | 27.7% of theory | 
